In PMC8970677 one finds binding data, which are given here for four molecules.

By UniProt entry, the sequences of proteins in these tests, tags left out. Where a name states a change or a piece, a line headed by the entry shows the natural chain unless it says otherwise.
UniProt P22366: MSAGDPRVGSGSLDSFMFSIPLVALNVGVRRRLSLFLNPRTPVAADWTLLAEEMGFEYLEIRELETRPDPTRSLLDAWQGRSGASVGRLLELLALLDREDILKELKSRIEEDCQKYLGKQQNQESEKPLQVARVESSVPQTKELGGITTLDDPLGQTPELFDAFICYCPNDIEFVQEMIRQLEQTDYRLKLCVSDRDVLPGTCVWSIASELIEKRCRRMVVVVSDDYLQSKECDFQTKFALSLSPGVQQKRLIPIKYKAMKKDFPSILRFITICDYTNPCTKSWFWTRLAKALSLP
UniProt O60603: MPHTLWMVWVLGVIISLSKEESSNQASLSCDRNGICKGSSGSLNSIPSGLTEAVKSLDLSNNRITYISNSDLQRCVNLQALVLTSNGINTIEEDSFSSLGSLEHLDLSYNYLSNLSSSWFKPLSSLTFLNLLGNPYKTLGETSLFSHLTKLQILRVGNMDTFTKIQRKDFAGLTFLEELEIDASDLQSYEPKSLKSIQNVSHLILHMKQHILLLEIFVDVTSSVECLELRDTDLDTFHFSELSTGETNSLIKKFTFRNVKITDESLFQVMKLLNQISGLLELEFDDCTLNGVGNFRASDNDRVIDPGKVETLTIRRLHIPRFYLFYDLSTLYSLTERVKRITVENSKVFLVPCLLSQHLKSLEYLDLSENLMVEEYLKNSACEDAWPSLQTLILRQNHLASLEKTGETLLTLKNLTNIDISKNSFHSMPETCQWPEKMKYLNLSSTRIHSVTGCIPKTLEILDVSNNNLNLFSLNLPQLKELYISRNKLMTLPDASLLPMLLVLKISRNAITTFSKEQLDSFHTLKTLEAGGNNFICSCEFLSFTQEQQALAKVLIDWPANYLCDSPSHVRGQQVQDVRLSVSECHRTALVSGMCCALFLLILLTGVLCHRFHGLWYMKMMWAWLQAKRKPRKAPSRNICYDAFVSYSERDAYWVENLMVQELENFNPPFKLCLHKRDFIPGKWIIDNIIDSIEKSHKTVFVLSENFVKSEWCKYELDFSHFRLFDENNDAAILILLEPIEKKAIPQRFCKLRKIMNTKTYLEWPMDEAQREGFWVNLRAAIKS

Where two headings read alike, the source gives them in different places. No constants are given. Whether binding was seen depends on the method and setting. Binding seen in cells or lysates may run through a third protein. Some binding calls cover weakened binding; strength is not graded here. For some assays here: Tags and fused reporters may be left off the sequences shown.

In experiment [1] the target is T1, Flag-3BP2 (mouse) (UniProt Q06649).
T1 sequence: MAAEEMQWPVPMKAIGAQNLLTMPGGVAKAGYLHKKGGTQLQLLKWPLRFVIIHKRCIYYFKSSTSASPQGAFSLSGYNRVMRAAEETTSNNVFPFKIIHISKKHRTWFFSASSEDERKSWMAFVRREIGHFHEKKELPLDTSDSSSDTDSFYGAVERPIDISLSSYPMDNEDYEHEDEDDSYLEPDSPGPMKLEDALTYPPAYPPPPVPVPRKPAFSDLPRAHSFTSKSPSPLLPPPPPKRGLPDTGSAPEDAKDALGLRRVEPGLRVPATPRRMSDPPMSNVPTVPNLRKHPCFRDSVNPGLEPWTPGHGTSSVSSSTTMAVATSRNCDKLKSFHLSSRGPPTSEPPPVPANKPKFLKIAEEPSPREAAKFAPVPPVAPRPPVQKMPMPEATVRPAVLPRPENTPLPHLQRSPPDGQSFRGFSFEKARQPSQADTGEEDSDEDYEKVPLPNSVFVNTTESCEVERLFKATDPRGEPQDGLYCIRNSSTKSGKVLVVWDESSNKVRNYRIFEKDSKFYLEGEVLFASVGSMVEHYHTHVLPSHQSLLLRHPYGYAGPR
In words: co-IP; tagged constructs cotransfected in HEK293T; immune complexes of the tagged bait (HA-SRC, HA-SYK, Flag-TLR2, Myc-TLR2, Flag-3BP2) on Dynabeads Protein A or G at 4 C, Western blot; with or without coexpressed SRC (Figure 1L). (In western blotting, separated proteins are transferred to a membrane and probed.)

For experiment [2], the target named is GST-MyD88 (mouse) (UniProt P22366). As to the kind of experiment: pull-down; GST-MyD88 cotransfected with Myc-TLR2 variants in HEK293T; GST-tagged protein collected with Glutathione Sepharose 4B, Western blot; with or without SRC and SYK inhibitors.
In experiment [3] the target is T1, Flag-3BP2 (mouse). In words: co-IP; tagged constructs cotransfected in HEK293T; immune complexes of the tagged bait (HA-SRC, HA-SYK, Flag-TLR2, Myc-TLR2, Flag-3BP2) on Dynabeads Protein A or G at 4 C, Western blot; with or without coexpressed SRC (Figure 1L). This is another data set of the same source.
Experiment [4] concerns the target Myc-TLR2 (WT) (human) (UniProt O60603). Described as above.

GST-MyD88 (from UniProt P22366 1-296): the binding result in experiment [1] is given as “binds”.
As to “Myc-TLR2 (WT) (from UniProt O60603 21-784) (receptor)”, the binding entry in experiment [2] and in experiment [1] was “binds” in each case.

B1: HA-TRAF6 (protein, UniProt P70196 1-530)
chain: MSLLNCENSCGSSQSSSDCCAAMAASCSAAVKDDSVSGSASTGNLSSSFMEEIQGYDVEFDPPLESKYECPICLMALREAVQTPCGHRFCKACIIKSIRDAGHKCPVDNEILLENQLFPDNFAKREILSLTVKCPNKGCLQKMELRHLEDHQVHCEFALVNCPQCQRPFQKCQVNTHIIEDCPRRQVSCVNCAVSMAYEEKEIHDQSCPLANIICEYCGTILIREQMPNHYDLDCPTAPIPCTFSVFGCHEKMQRNHLARHLQENTQLHMRLLAQAVHNVNLALRPCDAASPSRGCRPEDPNYEETIKQLESRLVRQDHQIRELTAKMETQSMYVGELKRTIRTLEDKVAEMEAQQCNGIYIWKIGNFGMHLKSQEEERPVVIHSPGFYTGRPGYKLCMRLHLQLPTAQRCANYISLFVHTMQGEYDSHLPWPFQGTIRLTILDQSEALIRQNHEEVMDAKPELLAFQRPTIPRNPKGFGYVTFMHLEALRQGTFIKDDTLLVRCEVSTRFDMGGLRKEGFQPRSTDAGV
As for B1, in experiment [3], the binding entry was “binds”.

B2: GST-PPP1R11 (enzyme, UniProt O60927 1-126)
chain: MAEAGAGLSETVTETTVTVTTEPENRSLTIKLRKRKPEKKVEWTSDTVDNEHMGRRSSKCCCIYEKPRAFGESSTESDEEEEEGCGHTHCVRGHRKGRRRATLGPTPTTPPQPPDPSQPPPGPMQH
Take B2: in experiment [4], the binding result is on record as “binds”.
